Measurements: the supplement of paper PMC7661543
± gives the standard deviation of the averaged measurements. Differences between knockout arms are mostly noise.

Test system: BT-20
Assay: relative cell number vs DMSO control (72 h) (% of DMSO); higher = less growth inhibition (more cells)
Description: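 QMAP-Seq: a pool of 5 breast cancer cell lines (ZR-75-1, SKBR3, HCC-38, MDA-MB-231, BT-20), each carrying 12 doxycycline-inducible Cas9 sgRNA perturbations (11 knockouts plus non-targeting sgNT), was treated with compounds for 72 h at four 10-fold doses (10 nM-10 uM or 1 nM-1 uM range). Barcodes were amplified and sequenced, and cell number was interpolated from 293T spike-in standard curves. The result is expressed as % of the median of DMSO wells. Two biological replicates.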

[1] = sgRNA knockout: sgATF3, 1000 nM
[2] = sgRNA knockout: sgATF3, 10000 nM
[3] = sgRNA knockout: sgATF4, 1000 nM
[4] = sgRNA knockout: sgATF4, 10000 nM
[5] = sgRNA knockout: sgATF6, 1000 nM
[6] = sgRNA knockout: sgATF6, 10000 nM
[7] = sgRNA knockout: sgATG7, 1000 nM
[8] = sgRNA knockout: sgATG7, 10000 nM
[9] = sgRNA knockout: sgERN1, 1000 nM
[10] = sgRNA knockout: sgERN1, 10000 nM
[11] = sgRNA knockout: sgHSF1, 1000 nM
[12] = sgRNA knockout: sgHSF1, 10000 nM
[13] = sgRNA knockout: sgHSF2, 1000 nM
[14] = sgRNA knockout: sgHSF2, 10000 nM
[15] = sgRNA knockout: sgKEAP1, 100 nM
[16] = sgRNA knockout: sgKEAP1, 1000 nM
[17] = sgRNA knockout: sgKEAP1, 10000 nM
[18] = sgRNA knockout: sgNFE2L2, 10 nM
[19] = sgRNA knockout: sgNFE2L2, 100 nM
[20] = sgRNA knockout: sgNFE2L2, 1000 nM
[21] = sgRNA knockout: sgNFE2L2, 10000 nM
[22] = sgRNA knockout: sgSLC35F2, 10 nM
[23] = sgRNA knockout: sgSLC35F2, 100 nM
[24] = sgRNA knockout: sgSLC35F2, 1000 nM
[25] = sgRNA knockout: sgSLC35F2, 10000 nM
[26] = sgRNA knockout: sgXBP1, 1000 nM
[27] = sgRNA knockout: sgXBP1, 10000 nM

O=C(/C=C/c1ccc(O)cc1)c1ccc(O)cc1O [Isoliquiritigenin]
relative cell number (sgRNA knockout: sgATF3, 10 nM): 86.2 ± 9.2 | relative cell number (sgRNA knockout: sgATF3, 100 nM): 103 ± 8.6 | relative cell number [1]: 93.1 ± 16 | relative cell number [2]: 93.2 ± 7.4 | relative cell number (sgRNA knockout: sgATF4, 10 nM): 96 ± 14 | relative cell number (sgRNA knockout: sgATF4, 100 nM): 108 ± 23 | relative cell number [3]: 101 ± 17 | relative cell number [4]: 101 ± 5.9 | relative cell number (sgRNA knockout: sgATF6, 10 nM): 86.3 ± 7.8 | relative cell number (sgRNA knockout: sgATF6, 100 nM): 96.8 ± 6.1 | relative cell number [5]: 110 ± 20 | relative cell number [6]: 93.4 ± 3.3 | relative cell number (sgRNA knockout: sgATG7, 10 nM): 86.9 ± 24 | relative cell number (sgRNA knockout: sgATG7, 100 nM): 121 ± 21 | relative cell number [7]: 99.1 ± 4.3 | relative cell number [8]: 100 ± 11 | relative cell number (sgRNA knockout: sgERN1, 10 nM): 99.7 ± 12 | relative cell number (sgRNA knockout: sgERN1, 100 nM): 101 ± 43 | relative cell number [9]: 94 ± 9.4 | relative cell number [10]: 102 ± 2.4 | relative cell number (sgRNA knockout: sgHSF1, 10 nM): 81.7 ± 2.4 | relative cell number (sgRNA knockout: sgHSF1, 100 nM): 93.6 ± 31 | relative cell number [11]: 93.7 ± 3.5 | relative cell number [12]: 91.3 ± 3.8 | relative cell number (sgRNA knockout: sgHSF2, 10 nM): 93.5 ± 3.5 | relative cell number (sgRNA knockout: sgHSF2, 100 nM): 90 ± 34 | relative cell number [13]: 102 ± 8.9 | relative cell number [14]: 108 ± 2.9 | relative cell number (sgRNA knockout: sgKEAP1, 10 nM): 94.6 ± 13 | relative cell number [15]: 110 ± 16 | relative cell number [16]: 81 ± 15 | relative cell number [17]: 92.5 ± 8.9 | relative cell number [18]: 99.9 ± 14 | relative cell number [19]: 99.9 ± 27 | relative cell number [20]: 89.2 ± 1.7 | relative cell number [21]: 96.2 ± 22 | relative cell number [22]: 114 ± 3.8 | relative cell number [23]: 94.3 ± 8.8 | relative cell number [24]: 99.9 ± 12 | relative cell number [25]: 106 ± 8.4 | relative cell number (sgRNA knockout: sgXBP1, 10 nM): 107 ± 10 | relative cell number (sgRNA knockout: sgXBP1, 100 nM): 114 ± 22 | relative cell number [26]: 99.5 ± 21 | relative cell number [27]: 113 ± 23

Cc1ccc(S(=O)(=O)OCC(=O)Nc2ccc(C(=O)O)c(O)c2)cc1
relative cell number (sgRNA knockout: sgATF3, 10 nM): 113 ± 8.1 | relative cell number (sgRNA knockout: sgATF3, 100 nM): 88.6 ± 6 | relative cell number [1]: 99.9 ± 7.4 | relative cell number [2]: 89.31 ± 0.67 | relative cell number (sgRNA knockout: sgATF4, 10 nM): 109 ± 15 | relative cell number (sgRNA knockout: sgATF4, 100 nM): 103 ± 5.1 | relative cell number [3]: 110 ± 9.4 | relative cell number [4]: 97.2 ± 3.5 | relative cell number (sgRNA knockout: sgATF6, 10 nM): 107 ± 16 | relative cell number (sgRNA knockout: sgATF6, 100 nM): 88.3 ± 26 | relative cell number [5]: 106 ± 12 | relative cell number [6]: 91 ± 1.7 | relative cell number (sgRNA knockout: sgATG7, 10 nM): 101 ± 31 | relative cell number (sgRNA knockout: sgATG7, 100 nM): 92.4 ± 4.7 | relative cell number [7]: 92.6 ± 1.6 | relative cell number [8]: 99.9 ± 2.6 | relative cell number (sgRNA knockout: sgERN1, 10 nM): 100 ± 24 | relative cell number (sgRNA knockout: sgERN1, 100 nM): 97.3 ± 3.2 | relative cell number [9]: 102 ± 4.4 | relative cell number [10]: 82.1 ± 7.3 | relative cell number (sgRNA knockout: sgHSF1, 10 nM): 109 ± 7.2 | relative cell number (sgRNA knockout: sgHSF1, 100 nM): 99.4 ± 13 | relative cell number [11]: 103 ± 5.5 | relative cell number [12]: 81.5 ± 11 | relative cell number (sgRNA knockout: sgHSF2, 10 nM): 117 ± 21 | relative cell number (sgRNA knockout: sgHSF2, 100 nM): 79.9 ± 1.2 | relative cell number [13]: 91 ± 6.2 | relative cell number [14]: 96.5 ± 17 | relative cell number (sgRNA knockout: sgKEAP1, 10 nM): 96.2 ± 6.4 | relative cell number [15]: 96.1 ± 2.4 | relative cell number [16]: 90.61 ± 0.12 | relative cell number [17]: 88.3 ± 9.1 | relative cell number [18]: 111 ± 19 | relative cell number [19]: 96.7 ± 9.9 | relative cell number [20]: 113 ± 7.1 | relative cell number [21]: 94.5 ± 10 | relative cell number [22]: 108 ± 38 | relative cell number [23]: 96.4 ± 11 | relative cell number [24]: 93.1 ± 14 | relative cell number [25]: 105 ± 9.8 | relative cell number (sgRNA knockout: sgXBP1, 10 nM): 114 ± 25 | relative cell number (sgRNA knockout: sgXBP1, 100 nM): 101 ± 23 | relative cell number [26]: 104 ± 11 | relative cell number [27]: 98 ± 11
